Among the data in paper PMC5974278 are binding values, retold here.

By UniProt entry, the sequences of proteins in these tests, tags left out.
UniProt O75151: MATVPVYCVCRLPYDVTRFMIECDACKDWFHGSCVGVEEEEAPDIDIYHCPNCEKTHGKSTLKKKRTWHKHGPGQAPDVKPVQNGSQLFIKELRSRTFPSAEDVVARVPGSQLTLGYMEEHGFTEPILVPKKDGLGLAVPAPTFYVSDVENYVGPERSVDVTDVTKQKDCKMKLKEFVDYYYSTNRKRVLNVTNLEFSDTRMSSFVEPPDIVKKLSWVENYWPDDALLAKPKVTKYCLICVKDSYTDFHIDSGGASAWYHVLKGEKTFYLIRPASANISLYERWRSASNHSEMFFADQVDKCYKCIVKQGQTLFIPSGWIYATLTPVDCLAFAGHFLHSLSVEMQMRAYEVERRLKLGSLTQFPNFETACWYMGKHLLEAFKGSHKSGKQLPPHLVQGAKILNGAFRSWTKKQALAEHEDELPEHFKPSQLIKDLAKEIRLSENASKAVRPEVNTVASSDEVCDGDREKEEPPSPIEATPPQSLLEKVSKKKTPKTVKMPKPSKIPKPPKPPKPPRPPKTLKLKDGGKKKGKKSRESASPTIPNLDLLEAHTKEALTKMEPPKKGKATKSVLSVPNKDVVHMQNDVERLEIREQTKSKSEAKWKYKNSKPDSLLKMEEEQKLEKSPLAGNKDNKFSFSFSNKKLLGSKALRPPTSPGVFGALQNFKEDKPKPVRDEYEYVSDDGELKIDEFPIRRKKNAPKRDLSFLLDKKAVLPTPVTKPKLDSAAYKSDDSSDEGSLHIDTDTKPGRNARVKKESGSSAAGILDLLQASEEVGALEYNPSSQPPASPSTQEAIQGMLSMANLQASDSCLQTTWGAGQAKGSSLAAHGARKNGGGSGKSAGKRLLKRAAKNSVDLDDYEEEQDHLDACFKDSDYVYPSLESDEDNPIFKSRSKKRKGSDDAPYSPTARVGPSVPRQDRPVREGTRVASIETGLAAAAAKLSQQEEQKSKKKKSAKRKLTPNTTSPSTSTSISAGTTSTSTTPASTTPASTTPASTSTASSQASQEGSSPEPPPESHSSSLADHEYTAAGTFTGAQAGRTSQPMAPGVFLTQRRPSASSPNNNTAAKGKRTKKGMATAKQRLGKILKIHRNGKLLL
UniProt Q9WTU0: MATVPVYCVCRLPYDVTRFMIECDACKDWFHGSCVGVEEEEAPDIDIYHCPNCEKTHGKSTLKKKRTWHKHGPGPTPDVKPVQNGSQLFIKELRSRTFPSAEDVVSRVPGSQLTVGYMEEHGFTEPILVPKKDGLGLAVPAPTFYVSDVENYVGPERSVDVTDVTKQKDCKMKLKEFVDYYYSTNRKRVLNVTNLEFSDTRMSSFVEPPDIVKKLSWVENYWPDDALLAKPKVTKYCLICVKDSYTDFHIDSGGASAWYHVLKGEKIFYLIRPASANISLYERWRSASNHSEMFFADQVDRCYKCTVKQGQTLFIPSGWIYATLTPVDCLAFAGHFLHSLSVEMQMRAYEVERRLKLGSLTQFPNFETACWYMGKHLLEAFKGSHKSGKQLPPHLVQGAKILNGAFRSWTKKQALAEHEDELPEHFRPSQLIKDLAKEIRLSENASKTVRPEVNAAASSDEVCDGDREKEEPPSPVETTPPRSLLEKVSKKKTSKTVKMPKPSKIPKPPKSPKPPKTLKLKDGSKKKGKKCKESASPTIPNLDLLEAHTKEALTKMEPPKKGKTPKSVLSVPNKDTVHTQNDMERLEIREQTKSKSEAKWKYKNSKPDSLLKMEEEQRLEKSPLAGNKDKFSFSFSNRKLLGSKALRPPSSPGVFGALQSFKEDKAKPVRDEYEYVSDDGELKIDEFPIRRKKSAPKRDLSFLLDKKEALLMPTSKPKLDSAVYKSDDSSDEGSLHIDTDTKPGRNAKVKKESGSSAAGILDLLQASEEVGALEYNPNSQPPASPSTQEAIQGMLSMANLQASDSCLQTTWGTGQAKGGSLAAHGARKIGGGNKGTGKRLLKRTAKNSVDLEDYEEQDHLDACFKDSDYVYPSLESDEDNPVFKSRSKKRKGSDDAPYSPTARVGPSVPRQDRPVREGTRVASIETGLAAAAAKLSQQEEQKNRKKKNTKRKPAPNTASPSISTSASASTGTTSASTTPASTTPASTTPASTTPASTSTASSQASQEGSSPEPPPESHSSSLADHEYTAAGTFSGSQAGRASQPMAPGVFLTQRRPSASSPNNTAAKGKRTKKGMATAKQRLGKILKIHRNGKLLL

Test [1] addresses T1, ChREBP (Carbohydrate Responsive Element Binding Protein), ectopically expressed in 293T cells (UniProt Q99MZ3).
T1 sequence: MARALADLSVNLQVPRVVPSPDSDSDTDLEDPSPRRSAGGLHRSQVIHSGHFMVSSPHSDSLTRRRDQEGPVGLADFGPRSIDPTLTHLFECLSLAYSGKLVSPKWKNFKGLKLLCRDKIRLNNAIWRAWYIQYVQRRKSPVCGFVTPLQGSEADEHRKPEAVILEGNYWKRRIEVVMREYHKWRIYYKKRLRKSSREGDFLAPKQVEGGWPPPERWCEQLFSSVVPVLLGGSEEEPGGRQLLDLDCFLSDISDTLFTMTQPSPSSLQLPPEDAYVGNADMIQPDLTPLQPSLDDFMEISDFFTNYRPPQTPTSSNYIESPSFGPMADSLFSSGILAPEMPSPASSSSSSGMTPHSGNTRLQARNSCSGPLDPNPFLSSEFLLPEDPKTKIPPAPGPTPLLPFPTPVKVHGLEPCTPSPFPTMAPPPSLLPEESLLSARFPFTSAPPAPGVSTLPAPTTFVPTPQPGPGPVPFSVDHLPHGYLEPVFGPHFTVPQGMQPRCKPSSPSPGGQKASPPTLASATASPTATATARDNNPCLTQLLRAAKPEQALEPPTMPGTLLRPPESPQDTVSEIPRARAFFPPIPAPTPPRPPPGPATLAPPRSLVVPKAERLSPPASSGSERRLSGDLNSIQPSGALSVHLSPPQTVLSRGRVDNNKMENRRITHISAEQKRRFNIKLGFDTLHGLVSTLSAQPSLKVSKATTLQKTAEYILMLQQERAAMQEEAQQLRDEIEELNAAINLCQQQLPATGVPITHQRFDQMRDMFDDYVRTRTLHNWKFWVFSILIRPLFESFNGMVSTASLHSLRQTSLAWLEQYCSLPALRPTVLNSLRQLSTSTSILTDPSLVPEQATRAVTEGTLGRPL
Briefly: co-IP; reciprocal co-immunoprecipitation of ectopically expressed proteins in 293T cells.

Test [2] deals with T2, endogenous ChREBP (mouse liver) (mouse (endogenous in liver of C57Bl/6J mice)) (UniProt Q99MZ3).
T2 sequence: T1 sequence
Briefly: co-IP; reciprocal co-immunoprecipitation of endogenous proteins in the liver of fed C57Bl/6J mice.

These are yes or no findings as the source states them, for the method shown. In cells and extracts the contact can be indirect. Some binding calls cover weakened binding; strength is not graded here.

Regarding “FLAG-tagged wild-type Phf2 (Plant Homeodomain Finger 2) (from UniProt O75151 1-1096) (enzyme)”, the binding entry in test [1] was “binds”.
Take “endogenous Phf2 (mouse liver / hepatocytes) (from UniProt Q9WTU0 1-1096) (enzyme)”: the binding result in test [2] is listed as “binds”.
